# PMC8877285
# T1: flavin-containing monooxygenase 3 (FMO3) (mouse (endogenous in mouse liver)) (UniProt P97501)
# T1 sequence: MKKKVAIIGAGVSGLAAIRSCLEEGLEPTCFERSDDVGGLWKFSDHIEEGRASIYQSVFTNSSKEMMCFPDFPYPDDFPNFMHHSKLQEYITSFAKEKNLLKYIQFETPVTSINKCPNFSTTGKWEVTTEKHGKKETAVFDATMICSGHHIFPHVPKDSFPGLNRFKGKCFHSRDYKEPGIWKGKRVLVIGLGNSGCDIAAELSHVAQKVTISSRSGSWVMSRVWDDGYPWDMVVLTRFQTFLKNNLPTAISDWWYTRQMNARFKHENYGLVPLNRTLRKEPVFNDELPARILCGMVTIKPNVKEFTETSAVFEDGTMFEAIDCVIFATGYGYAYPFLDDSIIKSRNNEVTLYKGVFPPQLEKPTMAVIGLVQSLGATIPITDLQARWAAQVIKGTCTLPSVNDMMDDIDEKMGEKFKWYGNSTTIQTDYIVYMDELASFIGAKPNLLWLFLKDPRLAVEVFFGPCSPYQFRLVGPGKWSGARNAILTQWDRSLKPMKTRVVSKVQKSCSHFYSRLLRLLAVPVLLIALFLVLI
# B1: OGDH (protein, UniProt Q60597 41-1023)
# chain: SAPVAAEPFLSGTSSNYVEEMYCAWLENPKSVHKSWDIFFRNTNAGAPPGTAYQSPLSLSRSSLATMAHAQSLVEAQPNVDKLVEDHLAVQSLIRAYQIRGHHVAQLDPLGILDADLDSSVPADIISSTDKLGFYGLHESDLDKVFHLPTTTFIGGQEPALPLREIIRRLEMAYCQHIGVEFMFINDLEQCQWIRQKFETPGIMQFTNEEKRTLLARLVRSTRFEEFLQRKWSSEKRFGLEGCEVLIPALKTIIDMSSANGVDYVIMGMPHRGRLNVLANVIRKELEQIFCQFDSKLEAADEGSGDMKYHLGMYHRRINRVTDRNITLSLVANPSHLEAADPVVMGKTKAEQFYCGDTEGKKVMSILLHGDAAFAGQGIVYETFHLSDLPSYTTHGTVHVVVNNQIGFTTDPRMARSSPYPTDVARVVNAPIFHVNSDDPEAVMYVCKVAAEWRNTFHKDVVVDLVCYRRNGHNEMDEPMFTQPLMYKQIRKQKPVLQKYAELLVSQGVVNQPEYEEEISKYDKICEEAFTRSKDEKILHIKHWLDSPWPGFFTLDGQPRSMTCPSTGLEEDVLFHIGKVASSVPVENFTIHGGLSRILKTRRELVTNRTVDWALAEYMAFGSLLKEGIHVRLSGQDVERGTFSHRHHVLHDQNVDKRTCIPMNHLWPNQAPYTVCNSSLSEYGVLGFELGFAMASPNALVLWEAQFGDFNNMAQCIIDQFICPGQAKWVRQNGIVLLLPHGMEGMGPEHSSARPERFLQMCNDDPDVLPDLQEENFDINQLYDCNWIVVNCSTPGNFFHVLRRQILLPFRKPLIVFTPKSLLRHPEARTSFDEMLPGTHFQRVIPENGPAAQDPHKVKRLLFCTGKVYYDLTRERKARNMEEEVAITRIEQLSPFPFDLLLKEAQKYPNAELAWCQEEHKNQGYYDYVKPRLRTTIDRAKPVWYAGRDPAAAPATGNKKTHLTELQRFLDTAFDLDAFKKFS
# B2: SDS (protein, UniProt Q8VBT2 1-327)
# chain: MAAQESLHVKTPLRDSMALSKLAGTSVFLKMDSSQPSGSFKIRGIGHLCKMKAKQGCRHFVCSSAGNAGMATAYAARRLGIPATIVVPNTTPALTIERLKNEGATVEVVGEMLDEAIQVAKALEKNNPGWVYISPFDDPLIWEGHTSLVKELKETLSAKPGAIVLSVGGGGLLCGVVQGLREVGWEDVPIIAMETFGAHSFHAAIKEGKLVTLPKITSVAKALGVNTVGAQTLKLFYEHPIFSEVISDQEAVSALEKFVDDEKILVEPACGAALAAVYSRVVCRLQDEGRLQTPLASLVVIVCGGSNISLAQLQALKVQLGLNGLPE
# B3: ACAA2 (protein, UniProt Q8BWT1 1-397)
# chain: MALLRGVFIVAAKRTPFGAYGGLLKDFSATDLTEFAARAALSAGKVPPETIDSVIVGNVMQSSSDAAYLARHVGLRVGVPTETGALTLNRLCGSGFQSIVSGCQEICSKDAEVVLCGGTESMSQSPYCVRNVRFGTKFGLDLKLEDTLWAGLTDQHVKLPMGMTAENLAAKYNISREDCDRYALQSQQRWKAANEAGYFNEEMAPIEVKTKKGKQTMQVDEHARPQTTLEQLQKLPSVFKKDGTVTAGNASGVSDGAGAVIIASEDAVKKHNFTPLARVVGYFVSGCDPTIMGIGPVPAINGALKKAGLSLKDMDLIDVNEAFAPQFLSVQKALDLDPSKTNVSGGAIALGHPLGGSGSRITAHLVHELRRRGGKYAVGSACIGGGQGIALIIQNTA
# B4: SERBP1 (protein, UniProt Q9CY58 1-407)
# chain: MPGHLQEGFGCVVTNRFDQLFDDESDPFEVLKAAENKKKEAGGGGVGGPGAKSAAQAAAQTNSNAAGKQLRKESQKDRKNPLPPSVGVADKKEETQPPVALKKEGIRRVGRRPDQQLQGDGKLIDRRAERRPPRERRFEKPLEEKGEGGEFSVDRPIIERPIRGRGGLGRGRGGRGRGMGRGDGFDSRGKREFDRHSGSDRSSFSHYSGLKHEDKRGGSGSHNWGTVKDELTESPKYIQKQISYNCSDLDQSNVTEETPEGEEHPVADTENKENEVEEVKEEGPKEMTLDEWKAIQNKDRAKVEFNIRKPNEGADGQWKKGFVLHKSKSEEAHAEDSVMDHHFRKPANDITSQLEINFGDLGRPGRGGRGGRGGRGRGGRPNRGSRTDKSSASAPDVDDPEAFPALA
# Molecular target: T1, flavin-containing monooxygenase 3 (FMO3) (mouse (endogenous in mouse liver))
# Assay: affinity purification with mass spectrometry; mouse liver extracts (vehicle or PCB-126-treated mice) in TBS (25 mM Tris pH 7.4, 150 mM NaCl, 1% NP-40, 5% glycerol, protease inhibitors), immunoprecipitated overnight at 4 °C with anti-FMO3 (Abnova) on protein A/G agarose; normal IgG IP as control; LC-MS/MS of the tryptic digest
row,binding,Binder
1,binds,B1
2,binds,B2
3,binds,B3
4,binds,B4

# Results are given in words; binding and its absence hold for the method and conditions named. In cells and extracts the contact can be indirect. These calls come from enrichment with a bait or labelling near it, and not all partners need be listed.
